Experimental data published in the supplement of paper PMC12889115.
This is one part of the list. These are raw signals, not scaled to a control.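 In the initial screen, polymyxin B was used at a concentration that permeabilizes Salmonella's outer membrane but not its inner membrane. Maximum growth was set by DMSO wells with or without polymyxin B. Since plates varied, data were ranked per plate, and compounds giving the lowest OD600 advanced as hits.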

Test system: Salmonella enterica serovar Typhimurium SL1344
Test: bacterial growth OD600 after 18 h with compound and polymyxin B; higher = more bacterial growth (less inhibition)
Settings: 50 µM, Mueller-Hinton broth

Row | SMILES | bacterial growth OD600 (polymyxin B 1 µg/mL) | bacterial growth OD600 (polymyxin B 0.75 µg/mL)
1 | O=C(c1coc(COc2cccc(F)c2)n1)N1CCCCCC1 | 0.874 | –
2 | CO[C@H]1[C@H](NC(=O)C(C)C)c2ccccc2C12CCN(C(=O)COc1ccc(Cl)cc1)CC2 | – | 0.591
3 | O=C(c1ccccc1)C1CCN(C(=O)C2CCC(=O)N(CCN3CCOCC3)C2)CC1 (centres undefined) | 0.926 | –
4 | CN1CCC(N(C)C(=O)c2csc3nc(-c4ccc(C(F)(F)F)cc4)cn23)C1 (centres undefined) | 0.728 | –
5 | CCN(Cc1nccn1C)c1ccc(-c2nc(C(C)C)no2)cn1 | – | 0.759
6 | CC(=O)N1CCC(Oc2ccc(Cl)cc2C(=O)NCc2nccn2C)CC1 | 0.879 | –
7 | CC(C)=CCN1CC[C@@H](N2CCN(CCc3ccccc3)CC2)[C@H](O)C1 | – | 0.873
8 | CC(C)CC(=O)NCC1CC(Cc2ccc(F)cc2)=NO1 (centres undefined) | – | 0.801
9 | Cc1c[nH]c(CN(C)C(=O)CC(c2ccccc2)c2ccccc2C)n1 (centres undefined) | 0.693 | –
